In all, about 360,000 compounds went through this assay and about 7,500 (2.1%) were called active. The shares of active, inactive and inconclusive entries below differ from those in the screen. Calls follow the shape of the dose curve; as a rule, active = well fitted inhibition curve with a large enough effect; inconclusive = small, poorly fitted or top-dose-only effect, or effect the other way; inactive = flat fitted curve, though single readings scatter. Potencies of inconclusive entries are doubtful fits and often do not repeat.
test: Nrf2 qHTS screen for inhibitors; settings: A549 ARE-Fluc reporter, luciferase luminescence, 18-24 h; series mostly up to 46 µM; also: nearly all actives have a fitted effect of over 60% in size
Outline: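 A549 ARE_Fluc cells, 5000/well, 5% FBS OPTI-MEM; compounds in dose-response, 18-24 h at 37 °C/5% CO2; CellTiter-Fluor viability read (Ex 405/Em 525), then BugLite luciferase luminescence = Nrf2 activity.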
Potency is read from the fitted curve at half-maximal effect.

Row | SMILES | Potency
1 | CSCC[C@H](NC(=O)C1CCN(S(=O)(=O)c2ccc(C)cc2C)CC1)c1nc2ccccc2[nH]1 | inconclusive: 18.4 µM [falling, single point]
2 | COC(=O)C(Cc1ccc(OC(=O)c2ccc(C(F)(F)F)cc2)cc1)N1Cc2ccccc2C1=O (centres undefined) | inconclusive: 23.1 µM [activator, partial curve]
3 | Cc1ccc2ccc[n+](Cc3ccccc3)c2c1 | inconclusive: 10.3 µM [falling, partial curve, poor fit]
4 | COc1cc(OC)c(-c2nc3ccccc3s2)cc1OC | inconclusive: 20.6 µM [activator, single point]
5 | COc1ccc(C2CC(=O)N(CC(=O)Nc3ccc(C(C)=O)cc3)c3ccccc3S2)cc1OC (centres undefined) | inconclusive: 29.1 µM [falling, single point]
6 | CCOC(=O)c1c(C)oc2nc(C)nc(N3CCN(c4cccc(C(F)(F)F)c4)CC3)c12 | inconclusive: 16.4 µM [falling, single point]
7 | CCn1ncc([N+](=O)[O-])c1C(=O)Nc1ccc(C(=O)N2CCCCC2)cc1 | inconclusive: 9.2 µM [falling, partial curve]
8 | CCOC(=O)c1c(NC(=O)/C=C/c2ccc(Cl)cc2)sc2c1CCC(C)C2 (centres undefined) | inactive
9 | O=C(NC1CCCCC1)C(c1ccc2ncccc2c1)N(Cc1ccc2c(c1)OCO2)C(=O)c1cccs1 (centres undefined) | inconclusive: 20.6 µM [falling, single point]
10 | O=C(c1ccc(CS(=O)c2ccccc2Cl)o1)N1CCN(c2ccccn2)CC1 (centres undefined) | inconclusive: 23.1 µM [falling, single point]
11 | Cc1ccc(OCc2cc(C(=O)NC3CCCCC3)no2)cn1 | inactive
12 | O=C(COc1ccccc1Cl)OCC(=O)N1CCN(S(=O)(=O)c2ccccc2)CC1 | inconclusive: 29.1 µM [activator, single point]
13 | Cc1ccc(C(=O)OCC(=O)NCc2cc(C)c(O)c(C)c2)cc1S(=O)(=O)N1CCCCC1 | inactive
14 | CN(C)S(=O)(=O)c1cccc(NC(=S)Nc2cc(Cl)cc(Cl)c2)c1 | inactive
15 | O=C(CSc1nnc(-c2ccco2)n1Cc1ccccc1)NCc1ccccc1 | inactive
16 | CC(C)n1c(-c2ccco2)csc1=Nc1cccnc1 | active: 12.6 µM
17 | O=C(NCc1ccccc1)c1cc(=O)c2ccccc2o1 | inconclusive: 10.3 µM [falling, partial curve, poor fit]
18 | Cc1ccc2c(C(=O)N3CCN(c4ccccc4)CC3)cc(-c3cccnc3)nc2c1C | active: 20.6 µM
19 | COc1ccc(Nc2cc(C(=O)NCCCN(C)C3CCCCC3)c3ccccc3n2)c(OC)c1 | inactive
20 | O=C(NCc1ccc(Cl)cc1)c1cccc2c1C(=O)N(CC1CCCO1)C2 (centres undefined) | inactive
21 | Fc1ccccc1-c1nc(-c2ccc(Cl)cc2)no1 | inconclusive: 0.92 µM [activator, full curve]
22 | CC(C)c1ccc(NC(=O)CN2C(=O)COc3ccc(S(=O)(=O)N4CCOCC4)cc32)cc1 | inconclusive: 16.4 µM [activator, partial curve, poor fit]

2 compounds picked at random from those above:
Row | SMILES | Potency
2 | COC(=O)C(Cc1ccc(OC(=O)c2ccc(C(F)(F)F)cc2)cc1)N1Cc2ccccc2C1=O (centres undefined) | inconclusive: 23.1 µM [activator, partial curve]
3 | Cc1ccc2ccc[n+](Cc3ccccc3)c2c1 | inconclusive: 10.3 µM [falling, partial curve, poor fit]

The listing continues.

Row | SMILES | Potency
23 | CCSC1=C(C#N)C(c2ccc(Cl)cc2)C2=C(CCCC2=O)N1 (centres undefined) | active: 20.6 µM
24 | CCOC(=O)C1CCCN(C(=O)c2ccc3c(c2)NC(=O)C(N2CCOCC2)S3)C1 (centres undefined) | inconclusive: 25.9 µM [falling, partial curve, poor fit]
25 | Cc1ccc(/C=N/NC(=O)c2csc3c2CCCC3)cc1 | inconclusive: 14.6 µM [activator, partial curve]
26 | COc1ccc(-c2c(C#N)c(N)nc3sc(C(=O)c4ccccc4)c(N)c23)cc1 | inconclusive: 1.3 µM [falling, full curve]
27 | COCCn1c(N)c(C(=O)NCc2cccs2)c2nc3ccccc3nc21 | active: 23.1 µM
28 | Cc1cccc(-c2noc(-c3c(C)noc3C)n2)c1 | inconclusive: 29.1 µM [activator, single point]
29 | Cc1ccc(SCC(=O)Nc2cccc(C)c2)cc1 | inconclusive: 23.1 µM [falling, partial curve, poor fit]
30 | COc1cc(/C=C/C(=O)OCC(=O)N2CCC(Cc3ccccc3)CC2)ccc1O | inconclusive: 20.6 µM [falling, partial curve, poor fit]
31 | C=CCn1c(-c2cccn(Cc3cccc(Cl)c3)c2=O)n[nH]c1=S | inconclusive: 25.9 µM [falling, partial curve, poor fit]
32 | CN(C)S(=O)(=O)c1cccc(C(=O)N=C2N=C3C=CC(Cl)=CN3Cc3ccccc32)c1 | inconclusive: 5.8 µM [activator, full curve]
33 | O=c1[nH]c2ccccc2c2oc(CCl)nc12 | inconclusive: 5.8 µM [falling, partial curve, poor fit]
34 | CCCn1c2ccccc2c2cnn(CC(=O)NCCCN(Cc3ccccc3)C(C)C)c(=O)c21 | inactive
35 | CCOc1ccc(S(=O)(=O)N2CCN(C(=S)NCC3CCCO3)CC2)cc1 (centres undefined) | inactive
36 | COc1ccc(OC)c(NC(=O)Cn2cnc3c(cnn3-c3ccccc3)c2=O)c1 | inactive
37 | Cn1c(=O)c2ccccc2n(CC(=O)Nc2ccc3c(c2)OCCO3)c1=O | inconclusive: 29.1 µM [falling, single point]
38 | CCCCC(=O)NC(Nc1nc(C2CC2)cs1)(C(=O)OCC)C(F)(F)F (centres undefined) | inactive
39 | O=C(CN(Cc1ccccc1F)C(=O)Cn1nnc(-c2cccs2)n1)NCC1CCCO1 (centres undefined) | inconclusive: 0.461 µM [falling, full curve, poor fit]
40 | Cc1cc2nc(-c3ccc(SCC(=O)Nc4ccc(S(=O)(=O)NC5CC5)cc4)nc3)[nH]c2cc1C | inconclusive: 1.84 µM [activator, partial curve, poor fit]
41 | CC(C)(C)c1ccc(NC(=O)c2ccsc2)cc1 | inconclusive: 0.291 µM [activator, full curve, poor fit]
42 | C=CCN1C(=O)/C(=C2/Sc3ccccc3N2CCCS(=O)(=O)O)SC1=S | inconclusive: 0.326 µM [activator, full curve, poor fit]
43 | Nc1cccc(N=[N+]([O-])c2cccc(N)c2)c1 | inconclusive: 16.4 µM [activator, partial curve]
44 | CCc1ccc(C2c3c(-c4ccccc4)n[nH]c3C(=O)N2c2ccc(C(=O)O)cc2)cc1 (centres undefined) | inactive

Row | SMILES | Potency
45 | CCCOc1ccc(NC(=O)CC2C(=O)Nc3ccccc3N2CC(=O)N2CCCC2)cc1 (centres undefined) | inconclusive: 23.1 µM [falling, partial curve]
46 | COc1cccc(-n2cc(C(=O)NCc3ccc(C)cc3)c3ccccc3c2=O)c1 | inconclusive: 20.6 µM [activator, partial curve, poor fit]
47 | O=C1C=CC(=O)N1c1cccc(-c2ccccc2)c1 | inactive
48 | CCCc1nc2ccccc2c(C(=O)OCC(=O)Nc2cccc(S(=O)(=O)N3CCOCC3)c2)c1CC | inconclusive: 29.1 µM [falling, single point]
49 | Cc1nn(Cc2c(Cl)cccc2Cl)c(C)c1NC(=O)c1cnn2c(C(F)F)cc(-c3ccccc3)nc12 | inconclusive: 5.8 µM [falling, full curve]
50 | CCOc1ccc(NC(=O)C2CCCN2S(=O)(=O)c2ccc3c(c2)C(C)(C)C(=O)N3C)cc1 (centres undefined) | inconclusive: 29.1 µM [falling, single point]
51 | O=C(Cn1c(=O)oc2ccccc21)Nc1cccc(Cl)c1 | inconclusive: 0.58 µM [falling, partial curve, poor fit]
52 | Cc1ccc(C(=O)Nc2ccc(S(=O)(=O)NCc3ccco3)cc2)cc1 | inactive
53 | O=C(Cc1ccc2c(c1)CCCC2)Nc1ccc2ccccc2c1 | inconclusive: 29.1 µM [activator, single point]
54 | COC(=O)c1c(NC(=O)C2(C)Cc3ccccc3C(=O)O2)sc2c1CCCC2 (centres undefined) | inconclusive: 16.4 µM [falling, partial curve, poor fit]
55 | CCCCn1c(=S)[nH]c2cc(S(=O)(=O)N3CCOCC3)ccc21 | inconclusive: 14.6 µM [falling, single point]
56 | O=C(Nc1cccc(S(=O)(=O)N2CCCC2)c1)c1ccc(Cl)nc1 | inconclusive: 18.4 µM [falling, single point]
57 | O=C1CCCc2ccccc2N1Cc1ccc(F)cc1 | inconclusive: 2.31 µM [falling, partial curve, poor fit]
58 | O=C(C[C@H]1C[C@H](C(=O)N2CCOCC2)[C@@]2(CCC3CCCC3)c3[nH]c4ccc(Cl)cc4c3CCN2C1=O)NCC12CC3CC(CC(C3)C1)C2 | inconclusive: 29.1 µM [falling, single point]
59 | COc1ccc(NC(=O)C2CCCN(S(=O)(=O)c3c(C)[nH]c(=O)[nH]c3=O)C2)cc1Cl (centres undefined) | inconclusive: 0.411 µM [activator, full curve, poor fit]
60 | CCOc1ccc(C(=O)NC(=S)Nc2cccc(S(=O)(=O)NC3=NCCC3)c2)cc1 | inconclusive: 9.2 µM [activator, partial curve]
61 | Cc1nn(-c2ccc(N3CCOCC3)nn2)c(C)c1CCC(=O)Nc1ccc(F)cc1F | inconclusive: 29.1 µM [activator, single point]
62 | O=C(Nc1ccc(NC(=O)c2ccccc2F)cn1)c1ccco1 | inconclusive: 10.3 µM [activator, partial curve]
63 | Cc1c(CCC(=O)NCCCCCC(=O)O)c(=O)oc2c(C)c3oc4c(c3cc12)CCCC4 | inconclusive: 23.1 µM [falling, partial curve, poor fit]
64 | O=C(NCCC1=CCCCC1)C1CCN(S(=O)(=O)c2cccc(C(F)(F)F)c2)CC1 | inconclusive: 29.1 µM [falling, single point]

Arranged by SMILES length (low to high): some entries from above
Row | SMILES | Potency
53 | O=C(Cc1ccc2c(c1)CCCC2)Nc1ccc2ccccc2c1 | inconclusive: 29.1 µM [activator, single point]
52 | Cc1ccc(C(=O)Nc2ccc(S(=O)(=O)NCc3ccco3)cc2)cc1 | inactive
46 | COc1cccc(-n2cc(C(=O)NCc3ccc(C)cc3)c3ccccc3c2=O)c1 | inconclusive: 20.6 µM [activator, partial curve, poor fit]
45 | CCCOc1ccc(NC(=O)CC2C(=O)Nc3ccccc3N2CC(=O)N2CCCC2)cc1 (centres undefined) | inconclusive: 23.1 µM [falling, partial curve]

Source: PubChem BioAssay AID504444 (National Center for Advancing Translational Sciences (NCATS), 2011)
